Source: PMC8386835

Target: T1, MTL5 (Metallothionein-like 5) (mouse (endogenous in spermatocytes)) (UniProt Q9WTJ6)
T1 sequence: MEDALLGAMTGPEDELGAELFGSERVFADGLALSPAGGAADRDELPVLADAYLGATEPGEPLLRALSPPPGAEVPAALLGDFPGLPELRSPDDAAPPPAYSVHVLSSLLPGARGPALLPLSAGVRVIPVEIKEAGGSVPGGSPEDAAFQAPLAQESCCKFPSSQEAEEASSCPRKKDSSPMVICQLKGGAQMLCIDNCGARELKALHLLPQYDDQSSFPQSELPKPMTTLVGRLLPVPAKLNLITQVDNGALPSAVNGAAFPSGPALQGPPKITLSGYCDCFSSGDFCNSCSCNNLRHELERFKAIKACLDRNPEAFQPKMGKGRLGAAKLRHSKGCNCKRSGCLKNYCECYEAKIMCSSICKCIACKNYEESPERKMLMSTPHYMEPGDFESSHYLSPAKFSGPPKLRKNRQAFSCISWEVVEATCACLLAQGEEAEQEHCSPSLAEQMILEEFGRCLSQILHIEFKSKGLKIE
Test: affinity purification with mass spectrometry; immunoprecipitation with anti-MTL5 C-terminal antibody (epitope 221-475) and Protein A/G agarose from pachytene and diplotene spermatocytes of 10-week-old wild-type mice, RIPA buffer, overnight at 4°C; rabbit IgG and knockout as controls

binding: no binding
B1: LIN54 (protein, UniProt Q571G4 1-749)
chain: MEVVPAEVNSLLPDDIMDTAITLVDEDSIEAVIVSSPIPMETELEEIVNINSTGDSTATPISTEPITVYSNHTNQVAVNTTVSKADSNTTVKPAFPSGLQKLGAQTPVTISANQIILNKVSQTSDLKLGNQTLKPDGQKLILTTLGKSGSPIVLALPHSQLPQAQKVTAQAQPGDAKLPPQQIKVVTIGGRPEVKPVIGVSALTPGSQLINTTTQPSVLQTQQLKTVQIAKKPRTPTSGPVITKLIFAKPINSKAVTGQTTQASPPVVTGRVLSQSTPGTPSKTITISESGVIGSTLNSTTQTPNKIAISPLKSPNKTVKSAVQTITVGGMSTSQFKTIIPLATAPNVQQIQVPGSKFHYVRLVTATTASSSAQPVSQSPSVNTQPLQQAKPVVVNTTPVRMSVPFVQAQAVKQVVPKPINSTSQIVTTSQPQQRLIMPATPLPQIQPNLTNLPPGTVLAPAPGTGNVGYAVLPAQYVTQLQQSSYVSIASNSNFTGTSGIQTQARLPFNGIIPSESTSRPRKPCNCTKSLCLKLYCDCFANGEFCNNCNCTNCYNNLEHENERQKAIKACLDRNPEAFKPKIGKGKEGESDRRHSKGCNCKRSGCLKNYCECYEAKIMCSSICKCIGCKNFEESPERKTLMHLADAAEVRVQQQTAAKTKLSSQISDLLTRPTPALNSAGGKLPFTFVTKEVAEATCNCLLAQAEQADKKGKSKAAAERMILEEFGRCLMSVINSAGKAKSDPCAMHC

Results are given in words; binding and its absence hold for the method and conditions named. Binding seen in cells or lysates may run through a third protein. A yes stands for co-enrichment or nearness to the bait. Other partners may have been found. No binding means not detected with the bait.
